The nature of this test: qHTS Assay for Lipid Storage Modulators in Drosophila S3 Cells.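 As to cell number change: cells counted by Cell Tracker Red CMTPX staining in the red channel.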 To be noted: BODIPY lipid droplet fluorescence, 18-24 h; for cell number change: measured here: cell count max response, cells fed with added oleic acid. The method, boiled down:
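Drosophila S3 cells got compounds at several concentrations plus oleic acid (400 uM solution). Laser-scanning cytometry with 488 nm excitation read lipid droplets at 500-530 nm and cells at 575-640 nm. Percent activity was relative to 20 uM Triacsin C.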
For orientation: qHTS replaces the single test concentration by a dilution series.

Where [1] appears, read: measured here: lipid fluorescence (Fed channel) AC50, cells fed with added oleic acid.
[2] abbreviates: measured here: cell number channel AC50, cells fed with added oleic acid.

A word on the AC50: it is the midpoint of the concentration-response curve, whichever way the signal moves.

The structures appear in SMILES notation. Some of the results follow. The main result of the screen is listed elsewhere. These columns were measured beside it and carry no call. Most of these compounds were active or inconclusive in the main read-out, so they are no random draw. The note in brackets gives the kind of curve behind each potency; many fits are weak.

On to `COc1ccc(S(=O)(=O)N(C)C)cc1NC(=O)CN1CCN(C(=O)C2CC2)CC1`, for which the cell number change was -2.72%. Moreover, the AC50 under setting [1] was 18.4 µM [rising, single point].
Regarding `Nc1sc2c(c1C(=O)NC1CCS(=O)(=O)C1)CCC2` (stereo not given), the cell number change came out at 17.4%. Further, the AC50 under setting [2] was 0.092 µM [falling, full curve, poor fit]. Also, the AC50 under setting [1] is 0.13 µM [falling, full curve, poor fit].
For the compound `COc1ccc(N(CCCN2C(=O)c3cccc4cccc(c34)C2=O)C(=O)c2cccs2)cc1`, the cell number change was 65%. Also, under setting [2], the AC50 is 29.1 µM [rising, single point]. For the same compound, the half-maximal activity concentration (AC50) under setting [1] was 16.4 µM [falling, single point].
As for `Cc1cc(C(=O)COC(=O)c2ccc(O)cc2)c(C)n1Cc1ccco1`, the cell number change turned out to be 27.6%. Also, under setting [1], the half-maximal activity concentration (AC50) is 0.651 µM [rising, full curve, poor fit].
Regarding `CCOc1c(Br)cc(C2NS(=O)(=O)N=C3CCCCCN32)cc1OC` (stereo not given), the half-maximal activity concentration (AC50) under setting [1] is 0.164 µM [rising, partial curve, poor fit].
Take `CN(C)S(=O)(=O)c1ccc(NC(=O)CN2CCC(Cc3ccccc3)CC2)cc1`: the cell number change worked out at 42.4%. For the same compound, the AC50 under setting [2] is 20.6 µM [rising, single point]. In addition, the AC50 under setting [1] was 0.116 µM [rising, full curve, poor fit].
For `CC1(C)CC(=O)c2cnn(-c3nc4ccccc4[nH]3)c2C1`, the cell number change is -17.6%.
In the case of `O=C(/C=C/c1ccc(S(=O)(=O)NCc2ccco2)cc1)NCc1cccc(Cl)c1`, the cell number change is -50%. In addition, under setting [2], the AC50 was 2.31 µM [falling, full curve]. Also, the AC50 under setting [1] is 10.3 µM [falling, partial curve].
Consider `Cc1ccc(/C=N/NC(=O)c2cccc([N+](=O)[O-])c2)o1`, for which the cell number change amounted to 18.6%. Besides, under setting [1], the AC50 was 5.17 µM [falling, full curve, poor fit].
For the compound `CCn1ncc(CN2CCCC(C(=O)Nc3cccc(-c4cc5ccccc5[nH]4)c3)C2)c1C` (stereo not given), the cell number change was 0.862%. The AC50 under setting [1] was 0.0651 µM [rising, full curve, poor fit].
In the case of `CCN1CCN(C(=O)c2cc3cc([N+](=O)[O-])ccc3oc2=O)CC1`, the AC50 under setting [2] was 0.92 µM [rising, partial curve] and the concentration at half-maximal activity (AC50) under setting [1] was 0.651 µM [rising, full curve].
For the compound `CCOc1ccccc1NC(=O)CCCN1C(=S)NC(C)(C)CC1C` (stereo not given), the cell number change came out at 8.53%. For the same compound, under setting [1], the AC50 is 8.2 µM [rising, partial curve, poor fit].
For `Cc1ccc(-c2csc(N3CCN(S(=O)(=O)c4ccc5c(c4)NC(=O)CO5)CC3)n2)cc1`, the cell number change was 26.7%. Besides, the AC50 under setting [1] was 1.84 µM [rising, partial curve].
As to `C/C(=N\NC(=O)c1cc(-c2ccccc2C)nc2ccccc12)c1cccnc1`, the cell number change is 3.23%. Also, under setting [1], the AC50 was 2.59 µM [falling, partial curve].
Consider `O=C(CSc1nc2nn(-c3ccccc3)c(=O)c-2c2n1CCCCC2)Nc1ccc(F)cc1F`, for which the cell number change was 13%.
As to `COc1cccc2[nH]c3c(N4CCN(Cc5ccc6c(c5)OCO6)CC4)ncnc3c12`, the cell number change was -19.8%. Also, under setting [1], the AC50 is 29.1 µM [falling, single point].
As to `CCOCCCn1c(=N)c(S(=O)(=O)c2ccccc2)cc2c(=O)n3cc(C)ccc3nc21`, the AC50 under setting [1] was 6.51 µM [rising, single point].
As to `COCCNC(=O)Cn1cc(/C=C(\C#N)C(=O)NC2CCCC2)c2ccccc21`, the cell number change was -33.6%. Also, the concentration at half-maximal activity (AC50) under setting [2] is 25.9 µM [falling, partial curve, poor fit].
Consider `c1ccc2c(c1)oc1c(NCC3CCCO3)ncnc12` (stereo not given), for which the cell number change was -13.9%. The AC50 under setting [1] was 23.1 µM [falling, single point].
As for `CC(=O)c1cccc(NC(=O)c2ccc3c(c2)CCN3S(=O)(=O)c2ccccc2)c1`, the cell number change was -32.4%. The AC50 under setting [2] is 23.1 µM [falling, partial curve, poor fit]. Further, the AC50 under setting [1] was 20.6 µM [falling, partial curve].
As for `COCCCNC(=O)Cn1nnc(-c2ccccc2NC(=O)c2ccccc2F)n1`, the cell number change is -7.98%.
In the case of `O=C(O)CCn1c(=S)n(CCC(=O)O)c2ccccc21`, the cell number change was found to be 31.8%.
Consider `CCn1cc([N+](=O)[O-])c(C(=O)Nc2c(C)nn(Cc3c(F)c(F)c(F)c(F)c3F)c2C)n1`, for which the AC50 was 0.259 µM [rising, partial curve, poor fit] under setting [2] and 14.6 µM [rising, partial curve, poor fit] under setting [1].
With `CN(C(=O)c1ccccn1)c1nnc(-c2ccccn2)s1`, the cell number change was -20%. Moreover, the half-maximal activity concentration (AC50) under setting [1] was 0.731 µM [falling, single point].
`CC(=O)Nc1ccc(C(=O)OCc2ccc(F)cc2)cc1`: the cell number change was -23.6%. For the same compound, the concentration at half-maximal activity (AC50) under setting [2] was 4.61 µM [falling, full curve, poor fit].
Consider `O=[N+]([O-])c1ccccc1/C=C/CN1CCC(O)CC1`, for which the cell number change worked out at 11.7%. Further, under setting [1], the AC50 is 29.1 µM [rising, single point].
In the case of `CCOC(=O)c1nnc(-c2cccs2)nc1Oc1ccccc1C(=O)OC`, the cell number change was -53%. Moreover, the AC50 under setting [2] was 29.1 µM [falling, single point]. In addition, the half-maximal activity concentration (AC50) under setting [1] is 0.731 µM [falling, full curve].
Regarding `Cc1ccc(NC(=O)Cc2nnc(SCC(=O)c3ccc(Br)cc3)n2C)cc1`, the cell number change is 69%. Under setting [2], the AC50 was 16.4 µM [rising, partial curve]. The AC50 under setting [1] was 18.4 µM [rising, partial curve].
`CC1CCCC(NC(=O)CCNC(=O)c2ccc(Br)cc2)C1C` (stereo not given): the cell number change came out at 16.9%. In addition, the AC50 under setting [1] was 6.51 µM [rising, single point].
For `CCOc1ccc(NS(=O)(=O)c2ccc(C(=O)N(CC)CC(=O)NCc3cccs3)cc2)cc1`, the cell number change was -60.9%. Further, the AC50 under setting [2] was 11.2 µM [falling, partial curve]. Further, the AC50 under setting [1] is 11.2 µM [falling, partial curve].
Turning to `CCOC(=O)CCNC(=O)N1CCCC(N2CCN(c3ccc(OC)cc3)CC2)C1` (stereo not given), the cell number change is -17.9%. For the same compound, the AC50 under setting [1] was 32.6 µM [falling, single point].
On to `CCC(C)(C)n1nnnc1C(c1ccc(C)cc1)N1CCC(C)CC1` (stereo not given), for which the cell number change came to 1.04%.
Turning to `C=CCNc1ncnc2c1cnn2-c1ccc(OC)cc1`, the cell number change was -16%. Also, the AC50 under setting [1] was 0.517 µM [falling, full curve, poor fit].
Turning to `Cn1c(SCC(=O)c2ccccc2)nnc1-c1cccc(N)c1`, the cell number change is 85.7%. For the same compound, under setting [2], the AC50 was 14.6 µM [rising, partial curve]. In addition, the AC50 under setting [1] is 14.6 µM [rising, partial curve].
Take `O=C(COc1ccccc1F)NC12CC3CC(CC(C3)C1)C2`: the cell number change is -37.5%. In addition, the AC50 under setting [2] is 20.6 µM [falling, single point]. The AC50 under setting [1] is 32.6 µM [falling, partial curve, poor fit].
On to `Cc1cc(C(=O)N/N=C/c2cc(Cl)cc([N+](=O)[O-])c2O)c2ccccc2n1`, for which the cell number change was -8.03%. In addition, the AC50 under setting [1] is 16.4 µM [rising, partial curve].
`S=C(NCCCN1CCOCC1)Nc1ccc(Cl)cc1`: the cell number change was 4.23%. Moreover, the AC50 under setting [1] is 0.291 µM [rising, partial curve, poor fit].
For the compound `Nc1nc(N2C(=O)C3CC=CCC3C2=O)nn1-c1ccccc1` (stereo not given), the cell number change is -45.9%. The AC50 under setting [2] is 1.46 µM [falling, full curve]. For the same compound, the AC50 under setting [1] was 29.1 µM [falling, single point].
On to `CCSc1nc2sc3c(c2c(=O)n1-c1ccccc1)CCN(C(C)C)C3`, for which the cell number change worked out at 84.5%.
Regarding `CCOC(=O)c1c(C)[nH]c(C)c1S(=O)(=O)NC(C)Cc1ccco1` (stereo not given), the cell number change was -4.75%. Moreover, the concentration at half-maximal activity (AC50) under setting [2] was 0.00517 µM [rising, full curve, poor fit].
Turning to `Cc1ccc2cc(CCNC(=O)c3c(-c4ccccc4Cl)noc3C)c(=O)[nH]c2c1`, the cell number change came to 23.8%. Further, the AC50 under setting [1] is 6.51 µM [rising, single point].
With `O=C(NCc1cccnc1)c1ccc(COc2ccc3c(c2)CCC3)o1`, the cell number change was -80.4%. The AC50 under setting [2] is 29.1 µM [falling, single point]. The AC50 under setting [1] is 29.1 µM [falling, single point].
On to `NC(=S)N/N=C/c1c(O)ccc2ccccc12`, for which, under setting [1], the AC50 is 29.1 µM [rising, single point].
As for `CCOC(=O)Cc1csc(CC(N)=O)n1`, the cell number change was -41.1%. Besides, the AC50 under setting [1] was 20.6 µM [falling, single point].
As for `CN1CCN(c2ccc(NC(=O)N3CCc4ccccc43)cc2)CC1`, the cell number change is -2.07%. In addition, under setting [2], the AC50 was 4.61 µM [falling, single point].
For `COc1ccc(CC(=O)OCC(=O)Nc2cccc(C(C)=O)c2)cc1OC`, the cell number change was determined as 11.5%.
Take `COc1ccc(CC(=O)Nc2ccc(C(N)=O)cc2)cc1`: the cell number change was 30.8%. Further, the AC50 under setting [2] was 32.6 µM [rising, single point]. Moreover, the AC50 under setting [1] is 0.092 µM [rising, partial curve, poor fit].
Regarding `Cc1cc(C(=O)OCC(=O)Nc2nc(-c3ccccc3)cs2)c(C)o1`, the cell number change is -37.1%. The concentration at half-maximal activity (AC50) under setting [1] is 1.03 µM [falling, single point].
Take `O=C(Nc1ccccc1N1CCCC1)c1ccc([N+](=O)[O-])cc1Cl`: the half-maximal activity concentration (AC50) under setting [2] was 0.291 µM [rising, single point].
In the case of `COCCn1c(SCC(=O)NC2CC2)nnc1-c1ccc(Cl)cc1`, the cell number change stood at 1.55%. Further, under setting [1], the AC50 is 0.00517 µM [rising, full curve, poor fit].
Consider `COc1cc(C(=O)OCC(=O)NC(=O)C2CCCCC2)ccc1OC(F)F`, for which the cell number change is -29.1%. The AC50 under setting [2] was 0.013 µM [falling, full curve, poor fit]. Under setting [1], the AC50 was 29.1 µM [falling, single point].
`COc1ccc(CN2CCN(C(=O)c3ccco3)CC2)cc1OC`: the cell number change is -16.8%.
In the case of `COc1nc(NC2CCCCC2)nc(N2CCCCCC2)n1`, the cell number change was -45.9%. Also, under setting [2], the AC50 is 23.1 µM [falling, single point]. Under setting [1], the AC50 is 23.1 µM [falling, single point].
As for `CN(CC(=O)Nc1cccc(F)c1)CC(=O)N1CCc2ccccc21`, the cell number change amounted to 5.97%. Also, the AC50 under setting [1] was 0.731 µM [rising, full curve, poor fit].
Turning to `O=C(NNc1ccccc1)C(CCO)C(=O)NNc1ccccc1`, the cell number change is 1.02%.
Turning to `O=C(c1ccccc1)N1CCC(c2nc(-c3ccc(S(=O)(=O)NCC4CCCO4)cc3)no2)CC1` (stereo not given), under setting [1], the AC50 is 6.51 µM [rising, single point].
Consider `CCOC(=O)c1c(C)nc(SCC(N)=O)c(C#N)c1-c1ccccc1`, for which the cell number change was 27.4%. For the same compound, the AC50 under setting [1] is 8.2 µM [rising, partial curve].
